According to PubChem BioAssay (Tox21):
The shares of active, inactive and inconclusive entries below differ from those in the screen. For part of these data: Potencies beside an inconclusive call are fits to weak or partial responses and may not hold up. Active and inactive are the calls of the source. Unless noted, the call rests on the fitted dose curve.

Protein sequences, listed by entry. Tags and fused reporters are not part of them.
UniProt P14416, whole entry, looked up: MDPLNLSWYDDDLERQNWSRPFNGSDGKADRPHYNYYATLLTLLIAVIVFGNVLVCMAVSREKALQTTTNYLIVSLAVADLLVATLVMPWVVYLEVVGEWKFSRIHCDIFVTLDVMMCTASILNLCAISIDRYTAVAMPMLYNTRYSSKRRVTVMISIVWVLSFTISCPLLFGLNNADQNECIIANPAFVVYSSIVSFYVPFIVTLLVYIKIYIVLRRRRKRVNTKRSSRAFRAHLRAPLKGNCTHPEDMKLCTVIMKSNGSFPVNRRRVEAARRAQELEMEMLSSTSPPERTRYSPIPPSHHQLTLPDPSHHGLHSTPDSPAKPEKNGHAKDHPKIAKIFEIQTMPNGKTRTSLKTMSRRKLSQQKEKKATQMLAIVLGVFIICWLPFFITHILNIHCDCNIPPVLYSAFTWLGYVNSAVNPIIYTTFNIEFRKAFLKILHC

Target: Beta-2 adrenergic receptor (Homo sapiens) (UniProt P07550)
Assay: Adrenergic beta2 receptor (ADRB2) small molecule agonists, cell-based qHTS assay (AID 1963593);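 further: CHO cells stably overexpressing human ADRB2; on the % scale 0 is the no-effect control and ±100 the full control effect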
Conditions: CHO-ADRB2 cells, cAMP HTRF, 30 min; at 92.4 µM (top of the series)
Procedure, shortened: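 CHO cells stably over-expressing ADRB2 were plated overnight at 37C, then dosed with compounds plus a stimulation mix containing 100uM IBMX and 25uM Ro-20-1724 for 0.5hr at room temperature. cAMP was measured by HTRF competition, 1hr.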

Structure (SMILES)	activation
O=C(c1cc(O)c(O)c(O)c1)c1ccc(O)c(O)c1O	inconclusive: -18.3%
CCC1(c2ccccc2)C(=O)NCNC1=O	inconclusive: -46.1%
Cc1ccc(Cl)cc1	inactive: 19.9%

Target: D(2) dopamine receptor (Homo sapiens) (UniProt P14416)
Assay: Dopamine D2 receptor (DRD2) small molecule agonists, cell-based qHTS assay (AID 1963594); further: potency means the concentration at half of the fitted maximal effect; nearly all actives have a fitted effect of over 35% in size
Conditions: HEK293-DRD2 cAMP HTRF, agonist mode, 30 min; activation: at 92.4 µM (top of the series) unless noted
Procedure, shortened: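 HEK293 cells stably expressing DRD2 were cultured 24 h at 37 C, then given Ro20-1724 (0.1 mM final) and compounds for 10 min at room temperature. NKH477 (200nM) was then added for 30 min. cAMP was read by HTRF.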

Structure (SMILES)	Potency
OCc1c[nH]c2ccccc12	inconclusive: 0.0404 µM
NC(=O)c1ccccc1O	inconclusive: 0.0447 µM
c1ccc2cc(Nc3ccc(Nc4ccc5ccccc5c4)cc3)ccc2c1	inconclusive: 24.5 µM [falling, partial curve]
O=c1ccc2ccccc2o1	inconclusive: 8.41 µM
Nc1ccc2c(O)cc(S(=O)(=O)O)cc2c1	inconclusive: 54.5 µM [rising, partial curve, poor fit]

Target: D(2) dopamine receptor (Homo sapiens) (UniProt P14416)
Assay: Dopamine D2 receptor (DRD2) small molecule antagonists, cell-based qHTS assay (AID 1963595; active means well fitted inhibition curve with a large enough effect in the signal ratio in the repeat runs, with a control signal flat; inconclusive means weak or mixed curves, or effect the other way; the % refers to the signal ratio; further: potency means the concentration at half of the fitted maximal effect; on activity change, negative = inhibition: on the % scale 0 is the no-effect control and ±100 the full control effect)
Conditions: HEK293-DRD2 cAMP HTRF antagonist mode; activity change, negative = inhibition: at 92.4 µM (top of the series) unless noted
Procedure, shortened: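 HTRF cAMP read-out at 665 and 620 nm emission (340 nm excitation). Antagonist mode: compounds were tested against 12 nM quinpirole in DRD2-HEK293 cells, with 200 nM NKH477 raising cAMP and 0.1 mM Ro20-1724 blocking its breakdown.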

Structure (SMILES)	Potency	activity change, negative = inhibition
O=C(c1cc(O)c(O)c(O)c1)c1ccc(O)c(O)c1O	inconclusive: 68.6 µM	inconclusive: 1.78%
c1ccc2cc(Nc3ccc(Nc4ccc5ccccc5c4)cc3)ccc2c1	inconclusive: 34.6 µM [falling, partial curve]	–
Cc1ccc(Cl)cc1	inconclusive: 0.969 µM [inhibitor, single point]	inconclusive: 3.74%
CC(=O)c1ccc2c(c1)N(CCCN(C)C)c1ccccc1S2	active: 1.68 µM	–
CCn1c2ccccc2c2cc(N)ccc21	–	inconclusive: -0.563%
